No constants are given. Whether binding was seen depends on the method and setting. In cells and extracts the contact can be indirect. These calls come from enrichment with a bait or labelling near it, and not all partners need be listed.
Molecular target: IRS1-BirA*-Flag (human) (UniProt P35568)
Assay: proximity labelling; BioID: IRS1-BirA*-Flag stably expressed in Flp-In 293 T-REx cells, 24 h with 1 ug/mL tetracycline and 50 uM biotin; streptavidin pull-down, mass spectrometry; SAINT against FlagBirA* alone, BFDR <=0.01

Protein sequences, listed by entry. Tags and fused reporters are not part of them.
UniProt P35568: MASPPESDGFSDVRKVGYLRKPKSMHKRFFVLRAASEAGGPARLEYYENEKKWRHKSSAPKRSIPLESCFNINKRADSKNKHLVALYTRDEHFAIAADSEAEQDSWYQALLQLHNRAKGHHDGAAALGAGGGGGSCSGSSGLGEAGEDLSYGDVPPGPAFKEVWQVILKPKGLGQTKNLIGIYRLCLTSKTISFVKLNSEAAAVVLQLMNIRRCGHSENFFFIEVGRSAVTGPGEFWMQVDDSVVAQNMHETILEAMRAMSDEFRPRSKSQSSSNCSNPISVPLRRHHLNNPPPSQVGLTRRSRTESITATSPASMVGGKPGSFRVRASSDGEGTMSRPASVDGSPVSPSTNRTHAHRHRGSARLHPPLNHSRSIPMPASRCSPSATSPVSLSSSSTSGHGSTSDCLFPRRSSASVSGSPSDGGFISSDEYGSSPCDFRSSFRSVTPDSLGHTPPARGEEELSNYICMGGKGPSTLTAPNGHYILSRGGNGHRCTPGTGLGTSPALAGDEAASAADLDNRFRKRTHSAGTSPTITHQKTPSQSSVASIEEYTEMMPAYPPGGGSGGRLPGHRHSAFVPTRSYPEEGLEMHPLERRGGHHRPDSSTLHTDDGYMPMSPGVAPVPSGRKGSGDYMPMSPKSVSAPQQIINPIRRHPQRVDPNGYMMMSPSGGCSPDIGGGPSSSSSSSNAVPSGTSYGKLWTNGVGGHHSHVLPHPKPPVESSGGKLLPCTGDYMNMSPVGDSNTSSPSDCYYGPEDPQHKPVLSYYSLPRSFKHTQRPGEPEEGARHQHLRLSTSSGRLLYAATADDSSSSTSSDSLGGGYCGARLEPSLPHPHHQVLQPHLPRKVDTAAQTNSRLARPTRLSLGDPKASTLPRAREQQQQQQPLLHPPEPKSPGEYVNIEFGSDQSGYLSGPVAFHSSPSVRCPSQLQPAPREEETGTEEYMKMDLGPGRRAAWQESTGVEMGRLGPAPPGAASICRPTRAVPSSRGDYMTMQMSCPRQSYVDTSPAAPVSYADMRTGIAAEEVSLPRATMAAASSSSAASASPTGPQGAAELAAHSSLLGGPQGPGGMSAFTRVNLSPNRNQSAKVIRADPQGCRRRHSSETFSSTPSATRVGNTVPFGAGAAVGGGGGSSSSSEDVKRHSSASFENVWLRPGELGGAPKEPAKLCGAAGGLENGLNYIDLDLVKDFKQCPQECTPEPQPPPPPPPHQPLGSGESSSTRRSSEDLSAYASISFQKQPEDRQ

B1: DDB1- and CUL4-associated factor 7 (DCAF7) (protein, UniProt P61962 1-342)
chain: MSLHGKRKEIYKYEAPWTVYAMNWSVRPDKRFRLALGSFVEEYNNKVQLVGLDEESSEFICRNTFDHPYPTTKLMWIPDTKGVYPDLLATSGDYLRVWRVGETETRLECLLNNNKNSDFCAPLTSFDWNEVDPYLLGTSSIDTTCTIWGLETGQVLGRVNLVSGHVKTQLIAHDKEVYDIAFSRAGGGRDMFASVGADGSVRMFDLRHLEHSTIIYEDPQHHPLLRLCWNKQDPNYLATMAMDGMEVVILDVRVPCTPVARLNNHRACVNGIAWAPHSSCHICTAADDHQALIWDIQQMPRAIEDPILAYTAEGEINNVQWASTQPDWIAICYNNCLEILRV
binding: binds

Reference: paper PMC9556925
